According to PubChem BioAssay AID1851 (National Center for Advancing Translational Sciences (NCATS), 2009):
Screen size: about 16,000 compounds; about 5,800 (36%) were called active. This list was built around the results that the source calls inconclusive (neither active nor inactive); the mix of calls is not that of the screen. The call rests on the fitted dose curve; in most records, active means well fitted curve in the direction sought with a large enough effect; inconclusive means small, poorly fitted or top-dose-only effect, or effect the other way; inactive means no such curve, though single readings can be large or run the other way. Where the call is inconclusive, the potency comes from a doubtful curve fit.

Protein sequences, listed by entry. Tags and fused reporters are not part of them.
UniProt P33261, whole entry, looked up: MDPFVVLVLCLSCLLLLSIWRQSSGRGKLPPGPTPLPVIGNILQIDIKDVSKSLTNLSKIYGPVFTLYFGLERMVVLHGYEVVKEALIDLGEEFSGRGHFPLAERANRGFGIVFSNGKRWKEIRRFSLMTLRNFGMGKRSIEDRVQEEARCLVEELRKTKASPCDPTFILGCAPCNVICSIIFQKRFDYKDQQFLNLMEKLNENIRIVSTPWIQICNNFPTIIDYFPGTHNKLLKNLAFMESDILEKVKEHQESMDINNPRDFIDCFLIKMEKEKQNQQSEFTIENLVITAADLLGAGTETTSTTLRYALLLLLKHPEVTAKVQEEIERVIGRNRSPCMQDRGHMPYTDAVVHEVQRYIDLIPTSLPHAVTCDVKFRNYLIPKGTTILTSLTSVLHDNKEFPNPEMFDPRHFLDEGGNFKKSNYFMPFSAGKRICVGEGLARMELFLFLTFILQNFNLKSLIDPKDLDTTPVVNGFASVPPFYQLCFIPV

These molecules were tested against Cytochrome P450 2C19 (Homo sapiens) (UniProt P33261) (assay: Cytochrome panel assay with activity outcomes). Settings: recombinant CYP, pro-luciferin dealkylation, luminescence, p450-cyp2c19; series mostly up to 11.4 µM.
With `CO[C@@H]1COC(=O)C/C=C\[C@H](C)[C@H](OC)COC(=O)[C@H]2CCCN2C(=O)C/C=C\[C@H]1C` the AC50 was “inactive”. In the case of `N.N.N.N.N.N.N.N.N.N.N.N.N.N.O.O.[Ru].[Ru].[Ru]`, the AC50 is reported as inconclusive: 39.8 µM [falling, single point].
